# Assay results from patent US8916550B2, “Compounds for modulating TRPV3 function” (Hydra Biosciences, Inc., priority 2005, dated 2014).
# The name of at least one read-out is uncertain.
# Test: Plasma levels by HPLC/MS/MS after administration
# Type: in vivo, rat
# Details: male Sprague-Dawley rats
# Method: The plasma levels of TRPV3 inhibitor 15 were determined via HPLC/MS/MS following administration to male Sprague-Dawley rats. Rats were administered a single intravenous bolus dose of 1.2 mg/kg, an intraperitoneal dose of a suspension of 30 or 60 mg/kg, an oral dose of a solution of 8.6 mg/kg, or an oral dose of a suspension of 6.9 mg/kg.
# For intravenous administration, TRPV3 inhibitor 15 solutions were formulated in Solutol at a target concentration of 0.25 mg/mL. The solution was administered as a rapid bolus (approximately 2-3 seconds) via the tail vein of conscious rats or via jugular vein catheter in anesthetized rats. The solution was administered at a dose volume of 4 mL/kg.
# For intraperitoneal administration, TRPV3 inhibitor 15 was formulated as a uniform suspension in CMC (carboxymethylcellulose) at a target concentration of 5 mg/mL. The suspension was administered at a dose volume of 10 mL/kg.
# For oral administration, TRPV3 inhibitor 15 was formulated as either a uniform suspension in CMC or as a solution in Solutol. The target concentration was 1 mg/mL. Oral administration was by gavage at a dose volume of 10 mL/kg to conscious, fasted, male Sprague-Dawley rats.
smiles,measurement,value
"Cc1cccc2c1N(C(=O)CSc1nc3cc(Cl)ccc3s1)CCC2 [Compound 15, 2-(5-Chlorobenzothiazol-2-ylsulfanyl)-1-(8-methyl-3,4-dihydro-2H-quinolin-1-yl)-ethanone]",Time at which Cmax occurred,15 min
